Sequences of proteins named here, by UniProt entry; tags and fusion partners are left off. A change or cut given only in a name is not applied to a line headed by its entry. A line that says so, or that is headed by a name, gives the form on record, which may keep a tag or linker.
BioID2-DNAJB6b (O75190, form named): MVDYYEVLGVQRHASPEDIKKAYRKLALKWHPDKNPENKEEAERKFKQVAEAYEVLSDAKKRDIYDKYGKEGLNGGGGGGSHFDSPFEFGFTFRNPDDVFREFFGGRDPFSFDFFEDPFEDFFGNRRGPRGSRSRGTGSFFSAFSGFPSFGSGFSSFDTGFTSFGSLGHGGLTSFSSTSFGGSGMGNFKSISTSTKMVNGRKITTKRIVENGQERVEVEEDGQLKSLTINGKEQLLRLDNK
UniProt P49790: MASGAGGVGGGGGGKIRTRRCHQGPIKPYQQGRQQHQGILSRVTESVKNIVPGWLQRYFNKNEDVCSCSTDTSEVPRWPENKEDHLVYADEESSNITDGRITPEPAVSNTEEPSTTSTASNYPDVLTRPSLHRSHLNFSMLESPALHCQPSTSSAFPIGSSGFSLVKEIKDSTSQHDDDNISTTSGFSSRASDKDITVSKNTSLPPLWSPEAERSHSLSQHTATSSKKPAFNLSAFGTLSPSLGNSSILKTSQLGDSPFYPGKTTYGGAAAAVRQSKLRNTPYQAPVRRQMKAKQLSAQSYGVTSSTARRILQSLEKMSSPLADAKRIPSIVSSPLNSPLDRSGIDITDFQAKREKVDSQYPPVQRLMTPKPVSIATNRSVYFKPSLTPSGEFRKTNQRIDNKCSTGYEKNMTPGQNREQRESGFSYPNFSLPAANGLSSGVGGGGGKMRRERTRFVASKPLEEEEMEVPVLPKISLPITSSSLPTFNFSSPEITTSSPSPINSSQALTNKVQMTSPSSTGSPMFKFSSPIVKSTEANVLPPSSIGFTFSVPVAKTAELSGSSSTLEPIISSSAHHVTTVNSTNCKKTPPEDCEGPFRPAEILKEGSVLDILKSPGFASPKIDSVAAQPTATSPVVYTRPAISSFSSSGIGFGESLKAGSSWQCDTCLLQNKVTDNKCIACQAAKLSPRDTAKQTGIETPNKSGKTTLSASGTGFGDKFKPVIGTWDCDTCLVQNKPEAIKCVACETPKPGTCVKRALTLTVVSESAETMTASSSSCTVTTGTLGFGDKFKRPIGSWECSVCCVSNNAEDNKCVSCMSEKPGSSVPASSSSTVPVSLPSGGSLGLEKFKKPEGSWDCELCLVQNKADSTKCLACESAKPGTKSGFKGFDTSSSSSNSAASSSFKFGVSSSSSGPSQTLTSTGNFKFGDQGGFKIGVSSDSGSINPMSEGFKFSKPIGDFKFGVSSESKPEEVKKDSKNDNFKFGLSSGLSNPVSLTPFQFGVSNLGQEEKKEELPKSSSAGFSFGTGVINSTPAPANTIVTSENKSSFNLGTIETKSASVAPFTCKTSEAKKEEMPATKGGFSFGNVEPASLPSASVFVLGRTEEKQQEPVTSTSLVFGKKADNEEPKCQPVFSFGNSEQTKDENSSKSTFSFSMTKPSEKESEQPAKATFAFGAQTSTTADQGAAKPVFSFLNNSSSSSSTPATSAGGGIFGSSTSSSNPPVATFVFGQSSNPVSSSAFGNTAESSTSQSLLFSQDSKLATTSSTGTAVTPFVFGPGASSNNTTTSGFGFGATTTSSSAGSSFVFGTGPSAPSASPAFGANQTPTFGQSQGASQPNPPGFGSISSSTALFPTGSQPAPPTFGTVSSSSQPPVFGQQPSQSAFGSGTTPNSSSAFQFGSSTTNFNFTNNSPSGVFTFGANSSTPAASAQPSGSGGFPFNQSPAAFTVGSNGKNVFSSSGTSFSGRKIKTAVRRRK
UniProt Q14974: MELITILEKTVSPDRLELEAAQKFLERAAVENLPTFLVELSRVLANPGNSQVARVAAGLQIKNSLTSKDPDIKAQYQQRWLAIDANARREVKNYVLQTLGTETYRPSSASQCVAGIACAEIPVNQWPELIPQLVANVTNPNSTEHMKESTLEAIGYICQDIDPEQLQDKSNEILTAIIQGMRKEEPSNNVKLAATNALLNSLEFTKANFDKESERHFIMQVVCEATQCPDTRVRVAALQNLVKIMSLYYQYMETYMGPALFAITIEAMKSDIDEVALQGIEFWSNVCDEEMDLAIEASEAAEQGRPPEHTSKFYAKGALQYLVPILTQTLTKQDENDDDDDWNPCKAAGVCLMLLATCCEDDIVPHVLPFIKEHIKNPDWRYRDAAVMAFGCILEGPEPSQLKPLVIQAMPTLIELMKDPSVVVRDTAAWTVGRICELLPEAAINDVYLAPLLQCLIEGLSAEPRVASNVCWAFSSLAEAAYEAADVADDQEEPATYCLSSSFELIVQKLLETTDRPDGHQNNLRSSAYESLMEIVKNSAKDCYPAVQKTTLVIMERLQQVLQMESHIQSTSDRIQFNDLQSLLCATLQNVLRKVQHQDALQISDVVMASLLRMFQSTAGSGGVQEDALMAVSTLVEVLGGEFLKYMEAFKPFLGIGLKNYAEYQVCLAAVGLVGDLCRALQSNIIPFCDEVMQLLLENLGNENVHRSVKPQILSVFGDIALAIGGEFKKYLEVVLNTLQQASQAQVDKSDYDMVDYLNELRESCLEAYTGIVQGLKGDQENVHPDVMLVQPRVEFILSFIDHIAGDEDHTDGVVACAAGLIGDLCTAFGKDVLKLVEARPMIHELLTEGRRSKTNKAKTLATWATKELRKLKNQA

In doi:10.1101/2021.10.26.465890:

B1: Nup133 (protein, UniProt Q8WUM0 1-1156)
chain: MFPAAPSPRTPGTGSRRGPLAGLGPGSTPRTASRKGLPLGSAVSSPVLFSPVGRRSSLSSRGTPTRMFPHHSITESVNYDVKTFGSSLPVKVMEALTLAEVDDQLTINIDEGGWACLVCKEKLIIWKIALSPITKLSVCKELQLPPSDFHWSADLVALSYSSPSGEAHSTQAVAVMVATREGSIRYWPSLAGEDTYTEAFVDSGGDKTYSFLTAVQGGSFILSSSGSQLIRLIPESSGKIHQHILPQGQGMLSGIGRKVSSLFGILSPSSDLTLSSVLWDRERSSFYSLTSSNISKWELDDSSEKHAYSWDINRALKENITDAIWGSESNYEAIKEGVNIRYLDLKQNCDGLVILAAAWHSADNPCLIYYSLITIEDNGCQMSDAVTVEVTQYNPPFQSEDLILCQLTVPNFSNQTAYLYNESAVYVCSTGTGKFSLPQEKIVFNAQGDSVLGAGACGGVPIIFSRNSGLVSITSRENVSILAEDLEGSLASSVAGPNSESMIFETTTKNETIAQEDKIKLLKAAFLQYCRKDLGHAQMVVDELFSSHSDLDSDSELDRAVTQISVDLMDDYPASDPRWAESVPEEAPGFSNTSLIILHQLEDKMKAHSFLMDFIHQVGLFGRLGSFPVRGTPMATRLLLCEHAEKLSAAIVLKNHHSRLSDLVNTAILIALNKREYEIPSNLTPADVFFREVSQVDTICECLLEHEEQVLRDAPMDSIEWAEVVINVNNILKDMLQAASHYRQNRNSLYRREESLEKEPEYVPWTATSGPGGIRTVIIRQHEIVLKVAYPQADSNLRNIVTEQLVALIDCFLDGYVSQLKSVDKSSNRERYDNLEMEYLQKRSDLLSPLLSLGQYLWAASLAEKYCDFDILVQMCEQTDNQSRLQRYMTQFADQNFSDFLFRWYLEKGKRGKLLSQPISQHGQLANFLQAHEHLSWLHEINSQELEKAHATLLGLANMETRYFAKKKTLLGLSKLAALASDFSEDMLQEKIEEMAEQERFLLHQETLPEQLLAEKQLNLSAMPVLTAPQLIGLYICEENRRANEYDFKKALDLLEYIDEEEDININDLKLEILCKALQRDNWSSSDGKDDPIEVSKDSIFVKILQKLLKDGIQLSEYLPEVKDLLQADQLGSLKSNPYFEFVLKANYEYYVQGQI

The molecules below were run against BioID2-DNAJB6b (UniProt O75190) (assay: proximity labelling).

Q: For “GFP-Nup153FG (aa 875-1475) (from UniProt P49790 875-1475) (domain or fragment)”, which binding is on record?
A: binds

Q: With Nup153 (from UniProt P49790 1-1475) as the molecule, how does the binding read?
A: binds

Q: For importin β (from UniProt Q14974 1-876), which binding is on record?
A: binds

Q: Which binding does the source give for B1 here?
A: no binding

These are yes or no findings as the source states them, for the method shown. Binding seen in cells or lysates may run through a third protein. These calls come from enrichment with a bait or labelling near it, and not all partners need be listed. No binding means not detected with the bait.
